Reference: PMC7349238

Chains of the proteins cited; added tags and fusions are not shown.
UniProt P35637: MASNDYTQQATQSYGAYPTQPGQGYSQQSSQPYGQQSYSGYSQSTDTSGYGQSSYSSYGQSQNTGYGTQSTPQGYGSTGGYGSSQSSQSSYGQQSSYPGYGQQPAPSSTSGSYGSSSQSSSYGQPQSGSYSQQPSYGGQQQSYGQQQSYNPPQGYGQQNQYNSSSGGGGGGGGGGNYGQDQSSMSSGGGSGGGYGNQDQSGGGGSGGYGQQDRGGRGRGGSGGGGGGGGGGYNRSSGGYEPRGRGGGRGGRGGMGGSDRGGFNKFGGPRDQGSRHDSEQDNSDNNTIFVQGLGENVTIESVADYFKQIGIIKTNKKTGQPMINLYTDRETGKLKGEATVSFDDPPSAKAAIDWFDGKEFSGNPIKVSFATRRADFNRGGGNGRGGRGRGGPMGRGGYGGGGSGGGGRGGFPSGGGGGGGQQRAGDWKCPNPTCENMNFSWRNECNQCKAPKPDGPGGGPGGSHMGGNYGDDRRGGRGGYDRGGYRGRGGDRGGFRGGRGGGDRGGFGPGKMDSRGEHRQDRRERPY

T1: Paraspeckle protein 1 (PSPC1) (human (endogenous in Huh7)) (UniProt Q8WXF1)
T1 sequence: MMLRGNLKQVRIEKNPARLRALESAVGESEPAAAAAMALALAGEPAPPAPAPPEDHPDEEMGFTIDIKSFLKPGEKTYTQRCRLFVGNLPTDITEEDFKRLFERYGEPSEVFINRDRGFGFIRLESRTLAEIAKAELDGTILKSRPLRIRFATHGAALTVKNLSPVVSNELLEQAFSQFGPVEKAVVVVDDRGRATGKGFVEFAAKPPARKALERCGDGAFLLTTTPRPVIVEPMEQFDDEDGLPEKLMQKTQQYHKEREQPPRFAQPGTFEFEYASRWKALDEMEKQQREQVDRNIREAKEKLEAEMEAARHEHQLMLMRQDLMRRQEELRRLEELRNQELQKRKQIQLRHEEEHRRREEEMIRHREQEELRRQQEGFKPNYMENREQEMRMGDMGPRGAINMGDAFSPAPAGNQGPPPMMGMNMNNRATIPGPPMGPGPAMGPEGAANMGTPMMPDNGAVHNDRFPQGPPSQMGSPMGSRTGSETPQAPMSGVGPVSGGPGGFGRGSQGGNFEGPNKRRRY

B1: RBM14 (protein, UniProt Q96PK6 1-669)
chain: MKIFVGNVDGADTTPEELAALFAPYGTVMSCAVMKQFAFVHMRENAGALRAIEALHGHELRPGRALVVEMSRPRPLNTWKIFVGNVSAACTSQELRSLFERRGRVIECDVVKDYAFVHMEKEADAKAAIAQLNGKEVKGKRINVELSTKGQKKGPGLAVQSGDKTKKPGAGDTAFPGTGGFSATFDYQQAFGNSTGGFDGQARQPTPPFFGRDRSPLRRSPPRASYVAPLTAQPATYRAQPSVSLGAAYRAQPSASLGVGYRTQPMTAQAASYRAQPSVSLGAPYRGQLASPSSQSAAASSLGPYGGAQPSASALSSYGGQAAAASSLNSYGAQGSSLASYGNQPSSYGAQAASSYGVRAAASSYNTQGAASSLGSYGAQAASYGAQSAASSLAYGAQAASYNAQPSASYNAQSAPYAAQQAASYSSQPAAYVAQPATAAAYASQPAAYAAQATTPMAGSYGAQPVVQTQLNSYGAQASMGLSGSYGAQSAAAATGSYGAAAAYGAQPSATLAAPYRTQSSASLAASYAAQQHPQAAASYRGQPGNAYDGAGQPSAAYLSMSQGAVANANSTPPPYERTRLSPPRASYDDPYKKAVAMSKRYGSDRRLAELSDYRRLSESQLSFRRSPTKSSLDYRRLPDAHSDYARYSGSYNDYLRAAQMHSGYQRRM
B2: HNRNPM (protein, UniProt P52272 1-730)
chain: MAAGVEAAAEVAATEIKMEEESGAPGVPSGNGAPGPKGEGERPAQNEKRKEKNIKRGGNRFEPYANPTKRYRAFITNIPFDVKWQSLKDLVKEKVGEVTYVELLMDAEGKSRGCAVVEFKMEESMKKAAEVLNKHSLSGRPLKVKEDPDGEHARRAMQKVMATTGGMGMGPGGPGMITIPPSILNNPNIPNEIIHALQAGRLGSTVFVANLDYKVGWKKLKEVFSMAGVVVRADILEDKDGKSRGIGTVTFEQSIEAVQAISMFNGQLLFDRPMHVKMDERALPKGDFFPPERPQQLPHGLGGIGMGLGPGGQPIDANHLNKGIGMGNIGPAGMGMEGIGFGINKMGGMEGPFGGGMENMGRFGSGMNMGRINEILSNALKRGEIIAKQGGGGGGGSVPGIERMGPGIDRLGGAGMERMGAGLGHGMDRVGSEIERMGLVMDRMGSVERMGSGIERMGPLGLDHMASSIERMGQTMERIGSGVERMGAGMGFGLERMAAPIDRVGQTIERMGSGVERMGPAIERMGLSMERMVPAGMGAGLERMGPVMDRMATGLERMGANNLERMGLERMGANSLERMGLERMGANSLERMGPAMGPALGAGIERMGLAMGGGGGASFDRAIEMERGNFGGSFAGSFGGAGGHAPGVARKACQIFVRNLPFDFTWKMLKDKFNECGHVLYADIKMENGKSKGCGVVKFESPEVAERACRMMNGMKLSGREIDVRIDRNA

Biological target: T1, Paraspeckle protein 1 (PSPC1) (human (endogenous in Huh7))
Assay: affinity purification with mass spectrometry; total cell lysates of Huh7 cells immunoprecipitated with the PSPC1 antibody; SDS-PAGE, Coomassie Blue; bands excised, in-gel digestion, LC-MS/MS

binding | Molecule
binds | FUS (from UniProt P35637 1-526)
binds | HNRNPK (from UniProt P61978 1-463)
binds | B1
binds | B2

These are yes or no findings as the source states them, for the method shown. In cells and extracts the contact can be indirect. These calls come from enrichment with a bait or labelling near it, and not all partners need be listed.
